In publication doi:10.1101/2024.11.12.621593 one finds binding data, which are given here for two substances.

Protein sequences, listed by entry. Tags and fused reporters are not part of them.
UniProt Q92547: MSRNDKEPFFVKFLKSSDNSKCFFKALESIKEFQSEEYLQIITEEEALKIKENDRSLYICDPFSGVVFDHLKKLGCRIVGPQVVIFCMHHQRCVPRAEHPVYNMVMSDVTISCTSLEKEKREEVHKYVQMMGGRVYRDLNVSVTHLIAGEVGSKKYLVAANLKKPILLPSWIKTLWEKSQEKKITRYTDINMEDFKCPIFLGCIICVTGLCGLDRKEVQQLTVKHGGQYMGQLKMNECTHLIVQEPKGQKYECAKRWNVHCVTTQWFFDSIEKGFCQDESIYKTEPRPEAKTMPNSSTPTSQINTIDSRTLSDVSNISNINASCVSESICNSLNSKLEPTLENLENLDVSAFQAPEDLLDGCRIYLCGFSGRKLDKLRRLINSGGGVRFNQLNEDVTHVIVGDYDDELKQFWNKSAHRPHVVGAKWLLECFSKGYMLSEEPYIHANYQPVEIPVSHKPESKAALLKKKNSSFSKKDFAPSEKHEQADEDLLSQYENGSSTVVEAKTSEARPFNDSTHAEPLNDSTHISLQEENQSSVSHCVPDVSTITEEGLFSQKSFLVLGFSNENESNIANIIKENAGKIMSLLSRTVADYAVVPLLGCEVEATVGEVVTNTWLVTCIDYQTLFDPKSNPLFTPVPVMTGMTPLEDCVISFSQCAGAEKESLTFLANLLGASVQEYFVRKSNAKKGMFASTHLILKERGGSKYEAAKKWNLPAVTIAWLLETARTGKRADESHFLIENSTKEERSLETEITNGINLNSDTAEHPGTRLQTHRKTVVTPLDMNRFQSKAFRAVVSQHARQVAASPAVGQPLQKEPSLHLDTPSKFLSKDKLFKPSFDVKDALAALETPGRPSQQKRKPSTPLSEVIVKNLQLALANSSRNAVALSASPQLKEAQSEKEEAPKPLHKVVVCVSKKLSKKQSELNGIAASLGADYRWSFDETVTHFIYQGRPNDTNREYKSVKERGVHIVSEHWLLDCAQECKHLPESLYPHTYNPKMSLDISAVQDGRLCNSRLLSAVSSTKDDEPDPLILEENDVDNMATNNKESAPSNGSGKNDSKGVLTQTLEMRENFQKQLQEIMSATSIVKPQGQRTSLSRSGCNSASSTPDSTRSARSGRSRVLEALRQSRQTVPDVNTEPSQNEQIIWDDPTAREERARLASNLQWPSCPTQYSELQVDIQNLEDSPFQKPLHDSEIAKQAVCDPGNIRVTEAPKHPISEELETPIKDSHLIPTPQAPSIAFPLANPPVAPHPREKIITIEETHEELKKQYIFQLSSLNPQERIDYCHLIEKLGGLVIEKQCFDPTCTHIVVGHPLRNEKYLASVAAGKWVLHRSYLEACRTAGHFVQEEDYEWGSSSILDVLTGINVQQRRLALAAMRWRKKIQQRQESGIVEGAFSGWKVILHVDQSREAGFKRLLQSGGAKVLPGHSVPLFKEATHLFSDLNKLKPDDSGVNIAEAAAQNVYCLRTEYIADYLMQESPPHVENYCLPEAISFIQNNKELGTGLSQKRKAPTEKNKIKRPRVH
UniProt Q8IY92: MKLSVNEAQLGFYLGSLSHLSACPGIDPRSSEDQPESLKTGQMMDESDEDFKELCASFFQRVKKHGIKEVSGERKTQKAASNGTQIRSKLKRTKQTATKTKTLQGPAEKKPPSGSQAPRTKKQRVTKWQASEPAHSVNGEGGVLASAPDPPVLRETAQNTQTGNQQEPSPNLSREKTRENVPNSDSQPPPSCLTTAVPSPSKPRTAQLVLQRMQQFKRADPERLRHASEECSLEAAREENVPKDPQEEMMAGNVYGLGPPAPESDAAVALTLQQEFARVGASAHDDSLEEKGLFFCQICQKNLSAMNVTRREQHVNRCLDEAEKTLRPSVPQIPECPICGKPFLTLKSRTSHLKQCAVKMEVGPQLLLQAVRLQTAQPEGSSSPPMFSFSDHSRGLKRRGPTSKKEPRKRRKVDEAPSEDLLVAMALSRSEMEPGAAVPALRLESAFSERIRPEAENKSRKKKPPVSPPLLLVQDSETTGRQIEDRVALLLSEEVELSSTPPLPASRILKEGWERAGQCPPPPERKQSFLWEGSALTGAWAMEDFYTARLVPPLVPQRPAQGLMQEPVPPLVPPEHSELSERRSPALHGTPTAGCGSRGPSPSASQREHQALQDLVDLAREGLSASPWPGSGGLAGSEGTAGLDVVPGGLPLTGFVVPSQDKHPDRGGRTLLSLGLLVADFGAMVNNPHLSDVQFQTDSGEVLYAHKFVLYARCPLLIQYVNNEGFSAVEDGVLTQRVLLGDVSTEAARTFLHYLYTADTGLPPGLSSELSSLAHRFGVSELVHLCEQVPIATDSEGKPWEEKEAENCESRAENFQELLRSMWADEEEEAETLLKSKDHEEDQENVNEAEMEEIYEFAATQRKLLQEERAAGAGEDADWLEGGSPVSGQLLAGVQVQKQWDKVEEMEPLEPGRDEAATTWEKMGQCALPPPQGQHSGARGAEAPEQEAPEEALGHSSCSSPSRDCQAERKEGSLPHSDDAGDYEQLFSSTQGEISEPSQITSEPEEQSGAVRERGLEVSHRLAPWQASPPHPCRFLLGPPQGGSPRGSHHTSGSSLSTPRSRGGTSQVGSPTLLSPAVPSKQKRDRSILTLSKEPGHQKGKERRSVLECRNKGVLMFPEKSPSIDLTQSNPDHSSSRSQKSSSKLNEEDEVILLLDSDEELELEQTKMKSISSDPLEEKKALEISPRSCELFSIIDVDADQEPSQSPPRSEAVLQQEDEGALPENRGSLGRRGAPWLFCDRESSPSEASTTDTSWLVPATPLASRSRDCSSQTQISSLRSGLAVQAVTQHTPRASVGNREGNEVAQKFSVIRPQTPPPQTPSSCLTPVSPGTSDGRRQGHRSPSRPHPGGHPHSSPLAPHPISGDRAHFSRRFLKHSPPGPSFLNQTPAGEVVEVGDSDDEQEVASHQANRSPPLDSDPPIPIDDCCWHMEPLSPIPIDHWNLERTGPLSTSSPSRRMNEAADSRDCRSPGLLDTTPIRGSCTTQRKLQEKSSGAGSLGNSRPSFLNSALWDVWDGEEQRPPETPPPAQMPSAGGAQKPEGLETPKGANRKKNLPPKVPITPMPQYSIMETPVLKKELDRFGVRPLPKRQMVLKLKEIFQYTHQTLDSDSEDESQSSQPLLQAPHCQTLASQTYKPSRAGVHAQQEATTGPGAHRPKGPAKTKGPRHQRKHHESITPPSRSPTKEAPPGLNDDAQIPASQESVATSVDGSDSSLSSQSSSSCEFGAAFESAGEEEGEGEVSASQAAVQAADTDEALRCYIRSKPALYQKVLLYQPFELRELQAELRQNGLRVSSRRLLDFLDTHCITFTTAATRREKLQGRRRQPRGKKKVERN
UniProt Q5VYV7: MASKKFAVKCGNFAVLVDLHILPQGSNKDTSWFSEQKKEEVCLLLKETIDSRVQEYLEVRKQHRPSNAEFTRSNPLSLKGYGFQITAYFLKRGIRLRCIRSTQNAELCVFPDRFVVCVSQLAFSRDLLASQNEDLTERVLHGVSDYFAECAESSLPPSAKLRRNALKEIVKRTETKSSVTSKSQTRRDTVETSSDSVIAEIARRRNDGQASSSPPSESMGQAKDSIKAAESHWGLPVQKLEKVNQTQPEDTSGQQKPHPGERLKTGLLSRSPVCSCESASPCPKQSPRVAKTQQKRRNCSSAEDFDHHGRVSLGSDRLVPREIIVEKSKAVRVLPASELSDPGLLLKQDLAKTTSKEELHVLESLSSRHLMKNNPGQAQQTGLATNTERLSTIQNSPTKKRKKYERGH

The target in test [1] is TOPBP1 (endogenous) (human (endogenous in HEK293TN)) (UniProt Q92547). The experiment in a line: affinity purification with mass spectrometry.
For test [2] the target is unchanged. The experiment in a line: affinity purification with mass spectrometry. This is another data set of the same source.

Like-named read-outs stand apart in the source and are kept apart here. Results are given in words; binding and its absence hold for the method and conditions named. Binding seen in cells or lysates may run through a third protein. A yes stands for co-enrichment or nearness to the bait. Other partners may have been found.

In the case of “SLX4 (endogenous) (from UniProt Q8IY92 1-1834)”, the binding entry in test [1] and in test [2] was “binds” throughout.

Take “SLX4IP (endogenous) (from UniProt Q5VYV7 1-408)”: the binding entry in test [2] is reported as “binds”.
